The values that follow come from PMC4375889.

Sequences of proteins named here, by UniProt entry; tags and fusion partners are left off. Residues count along the entry.
UniProt P49790, residues 874-1475: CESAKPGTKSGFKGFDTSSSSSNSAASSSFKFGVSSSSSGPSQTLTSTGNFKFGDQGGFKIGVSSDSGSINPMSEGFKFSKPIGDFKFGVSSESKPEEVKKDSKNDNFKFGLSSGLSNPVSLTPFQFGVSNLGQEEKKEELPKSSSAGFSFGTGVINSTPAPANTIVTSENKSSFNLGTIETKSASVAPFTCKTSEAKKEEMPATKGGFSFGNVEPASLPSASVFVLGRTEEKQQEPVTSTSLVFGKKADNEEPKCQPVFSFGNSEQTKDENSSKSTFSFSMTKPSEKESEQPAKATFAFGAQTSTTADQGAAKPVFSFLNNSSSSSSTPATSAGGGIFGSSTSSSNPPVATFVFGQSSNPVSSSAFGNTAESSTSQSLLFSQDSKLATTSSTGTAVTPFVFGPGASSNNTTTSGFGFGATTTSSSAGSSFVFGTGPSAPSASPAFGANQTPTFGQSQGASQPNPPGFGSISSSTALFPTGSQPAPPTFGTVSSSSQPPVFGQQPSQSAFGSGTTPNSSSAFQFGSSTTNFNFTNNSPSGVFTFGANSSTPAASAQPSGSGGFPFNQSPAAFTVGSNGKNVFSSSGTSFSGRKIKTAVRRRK
UniProt Q92973: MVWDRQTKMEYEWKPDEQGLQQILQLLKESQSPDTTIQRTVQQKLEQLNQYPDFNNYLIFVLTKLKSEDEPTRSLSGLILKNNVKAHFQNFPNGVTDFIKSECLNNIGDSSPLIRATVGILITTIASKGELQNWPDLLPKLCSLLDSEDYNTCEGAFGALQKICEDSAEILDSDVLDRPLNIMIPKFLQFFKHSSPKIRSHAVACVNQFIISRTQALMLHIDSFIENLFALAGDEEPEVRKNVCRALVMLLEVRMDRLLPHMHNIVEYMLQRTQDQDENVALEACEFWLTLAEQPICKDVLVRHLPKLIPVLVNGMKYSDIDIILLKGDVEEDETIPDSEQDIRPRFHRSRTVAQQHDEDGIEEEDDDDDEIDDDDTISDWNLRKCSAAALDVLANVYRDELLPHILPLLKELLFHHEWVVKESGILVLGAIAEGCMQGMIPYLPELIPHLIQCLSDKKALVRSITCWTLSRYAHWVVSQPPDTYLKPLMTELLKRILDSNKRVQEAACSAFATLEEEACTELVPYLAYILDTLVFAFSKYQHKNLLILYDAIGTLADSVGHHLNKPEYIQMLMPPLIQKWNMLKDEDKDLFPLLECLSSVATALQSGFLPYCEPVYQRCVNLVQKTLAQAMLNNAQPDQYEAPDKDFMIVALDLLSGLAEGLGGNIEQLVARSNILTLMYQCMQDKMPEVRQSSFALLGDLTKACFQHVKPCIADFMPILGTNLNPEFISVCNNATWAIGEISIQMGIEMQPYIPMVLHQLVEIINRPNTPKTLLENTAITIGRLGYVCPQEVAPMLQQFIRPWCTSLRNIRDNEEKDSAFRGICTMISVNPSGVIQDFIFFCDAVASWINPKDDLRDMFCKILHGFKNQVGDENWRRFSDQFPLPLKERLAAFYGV

For this assay, the target named is Nup153FG (the FG domain of Nup153 comprising amino acids 874-1475) (UniProt P49790). The assay can be described thus: fluorescence fluctuation spectroscopy (photon counting histograms); all in solution in 500 µl PBS with 2 mM DTT, room temperature; 50 nM impβ-YFP or 100 nM TRN1-GFP, 0.5 µM Nup153FG, with or without 2 µM RanQ69L•GTP; read at once or after 30 min; both purified.

These are yes or no findings as the source states them, for the method shown. Some binding calls cover weakened binding; strength is not graded here.

With “transportin-1 with a GFP tag (TRN1-GFP) (from UniProt Q92973 1-898)”, the binding entry was “binds”.
